Measured values as given in PMC8547426.
No constants are given. Whether binding was seen depends on the method and setting. In cells and extracts the contact can be indirect. Some entries that bind do so weakly or less than the wild type.

Chains of the proteins cited; added tags and fusions are not shown. Lines headed by an entry give the natural chain unless they say otherwise; changes in a name come on top.
UniProt Q01094: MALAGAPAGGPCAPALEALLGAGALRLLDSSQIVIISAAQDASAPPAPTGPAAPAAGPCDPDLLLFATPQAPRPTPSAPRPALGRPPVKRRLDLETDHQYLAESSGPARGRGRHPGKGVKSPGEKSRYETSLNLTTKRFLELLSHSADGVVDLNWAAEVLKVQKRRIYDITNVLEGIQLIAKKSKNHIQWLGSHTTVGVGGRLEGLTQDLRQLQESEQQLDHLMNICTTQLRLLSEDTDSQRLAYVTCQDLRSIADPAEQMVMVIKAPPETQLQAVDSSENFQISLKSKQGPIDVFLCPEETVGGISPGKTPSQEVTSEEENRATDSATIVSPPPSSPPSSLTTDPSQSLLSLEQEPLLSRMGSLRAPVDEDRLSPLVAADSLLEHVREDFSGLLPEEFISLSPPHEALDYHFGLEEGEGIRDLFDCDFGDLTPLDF

Target: E2F transcription factor 1 (E2F1) (human (endogenous in HCT-116)) (UniProt Q01094)
Assay: co-IP; HCT-116 cells lysed; 1.0-1.2 mg total protein incubated with antibody overnight, then 2 h with 20 uL beads at 4°C; western blot of the immunocomplex; the precipitating antibody is not stated

B1: RING Finger and WD Repeat Domain 3 (RFWD3) (protein, UniProt Q6PCD5 1-774)
chain: MAHEAMEYDVQVQLNHAEQQPAPAGMASSQGGPALLQPVPADVVSSQGVPSILQPAPAEVISSQATPPLLQPAPQLSVDLTEVEVLGEDTVENINPRTSEQHRQGSDGNHTIPASSLHSMTNFISGLQRLHGMLEFLRPSSSNHSVGPMRTRRRVSASRRARAGGSQRTDSARLRAPLDAYFQVSRTQPDLPATTYDSETRNPVSEELQVSSSSDSDSDSSAEYGGVVDQAEESGAVILEEQLAGVSAEQEVTCIDGGKTLPKQPSPQKSEPLLPSASMDEEEGDTCTICLEQWTNAGDHRLSALRCGHLFGYRCISTWLKGQVRKCPQCNKKARHSDIVVLYARTLRALDTSEQERMKSSLLKEQMLRKQAELESAQCRLQLQVLTDKCTRLQRRVQDLQKLTSHQSQNLQQPRGSQAWVLSCSPSSQGQHKHKYHFQKTFTVSQAGNCRIMAYCDALSCLVISQPSPQASFLPGFGVKMLSTANMKSSQYIPMHGKQIRGLAFSSYLRGLLLSASLDNTIKLTSLETNTVVQTYNAGRPVWSCCWCLDEANYIYAGLANGSILVYDVRNTSSHVQELVAQKARCPLVSLSYMPRAASAAFPYGGVLAGTLEDASFWEQKMDFSHWPHVLPLEPGGCIDFQTENSSRHCLVTYRPDKNHTTIRSVLMEMSYRLDDTGNPICSCQPVHTFFGGPTCKLLTKNAIFQSPENDGNILVCTGDEAANSALLWDAASGSLLQDLQTDQPVLDICPFEVNRNSYLATLTEKMVHIYKWE
**Q.** Which binding does the source give for B1 here?
**A.** binds
